From PubChem BioAssay AID2685 (National Center for Advancing Translational Sciences (NCATS), 2010)
The list shows a part of the results. Shown are side measurements of this screen, not its main read-out; they come without a call. Compounds called inactive in the main read-out are mostly missing here. Words in brackets tell the shape of the fitted curve; partial curves, single points and poor fits give uncertain potencies.

Assay: qHTS Assay for Lipid Storage Modulators in Drosophila S3 Cells;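 as to cell number change: cells counted by Cell Tracker Red CMTPX staining in the red channel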
Conditions: BODIPY lipid droplet fluorescence, 18-24 h; for cell number change: measured here: cell count max response, cells fed with added oleic acid
Outline: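 Drosophila S3 cells got compounds at several concentrations plus oleic acid (400 uM solution). Laser-scanning cytometry with 488 nm excitation read lipid droplets at 500-530 nm and cells at 575-640 nm. Percent activity was relative to 20 uM Triacsin C.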

[1] = measured here: lipid fluorescence (Fed channel) AC50, cells fed with added oleic acid
[2] = measured here: cell number channel AC50, cells fed with added oleic acid

| Compound | cell number change | AC50 [1] | AC50 [2] |
| --- | --- | --- | --- |
| Cc1ccc(OCC(=O)Nc2cccnc2Cl)cc1C | -25% |  |  |
| O=C(CSc1nnc(C2CC2)n1CC1CCCO1)Nc1ccc(Cl)cc1 (stereo not drawn) | -23% | 0.731 µM [rising, full curve, poor fit] |  |
| O=C(Nc1cnc2ccccc2c1)c1cccc(-n2cnnn2)c1 | 32.8% | 29.1 µM [rising, single point] | 23.1 µM [rising, single point] |
| COC(=O)CSc1nnc(-c2sc3cc(OC)ccc3c2Cl)n1C | -10.4% | 20.6 µM [falling, single point] |  |
| COc1ccc(OC)c(NC(=O)C2CCN(c3cc(-c4ccccc4)nc4ncnn34)CC2)c1 |  | 2.59 µM [rising, partial curve] | 3.26 µM [rising, partial curve] |
| CCCCC(=O)Nc1ccc(C(=O)Nc2ccc3c(c2)OCO3)cc1 | 2.77% | 0.058 µM [rising, full curve, poor fit] |  |
| CC(C)(C)c1ccc(S(=O)(=O)NCCOCC(F)(F)C(F)F)cc1 | -50.5% |  | 20.6 µM [falling, single point] |
| Cn1nc(C(=O)NNc2c(F)c(F)cc(F)c2F)c2ccccc2c1=O | -6.35% |  | 2.91 µM [rising, single point] |
| O=C(COC(=O)c1ccc([N+](=O)[O-])s1)NCc1ccc(F)cc1 | -22.1% | 7.31 µM [falling, partial curve, poor fit] |  |
| Cc1cccn2c(=O)c3cc(C(=O)NCc4ccco4)c(=N)n(C(C)C)c3nc12 | -19.4% | 1.64 µM [rising, full curve] |  |
| CNc1cc(CSc2ccc(Cl)cc2)nc(C)n1 | -49.4% | 29.1 µM [falling, partial curve, poor fit] | 1.46 µM [falling, single point] |
| CCOC(=O)C1CCN(C(=O)CN(Cc2ccc(Cl)cc2)S(C)(=O)=O)CC1 | -77.3% | 0.259 µM [falling, full curve, poor fit] | 29.1 µM [falling, single point] |
| Cc1cc(C)c2oc(C(=O)Nc3ccc(S(=O)(=O)N4CCCC(C)C4)cc3)cc(=O)c2c1 (stereo not drawn) |  |  | 5.8 µM [rising, single point] |
| Cc1ccn2cc(-c3ccc(NC(=O)c4ccco4)cc3)nc2c1 | -2.84% | 29.1 µM [falling, single point] |  |
| COCc1nc2ccccc2n1CCc1ccccc1 | -27% | 2.06 µM [falling, partial curve, poor fit] |  |
| CC1CCC2(CC1)NC(=O)N(CC(=O)Nc1cccc(C#N)c1)C2=O (stereo not drawn) | -11.9% | 2.06 µM [falling, full curve, poor fit] |  |
| O=C(Nc1ccc(N2CCN(C(=O)c3cccs3)CC2)cc1)c1ccco1 | 10.5% |  |  |
| COCCN(Cc1cc2cc3c(cc2nc1Cl)OCO3)C(=O)Nc1ccccc1OC | -2.33% |  |  |
| CC(C)OCCCn1c(NN)nc2ccccc2c1=O | 35.9% |  | 0.291 µM [rising, partial curve] |
| O=C(O)c1cc(NCc2cccs2)ccc1N1CCOCC1 | 3.96% |  |  |
| CC(=O)c1ccc(N2Cc3ccccc3C2)cc1 | 1.4% | 5.8 µM [rising, partial curve] |  |

| Compound | cell number change | AC50 [1] | AC50 [2] |
| --- | --- | --- | --- |
| Cc1sc2nc(C3CC3)nc(N3CCN(C(=O)c4ccc(Cl)cc4)CC3)c2c1C | 30.6% | 16.4 µM [rising, partial curve] | 0.58 µM [rising, full curve, poor fit] |
| Cc1noc(C)c1C(=O)N1CCN(Cc2ccc3c(c2)OCO3)CC1 | -1.59% | 6.51 µM [rising, single point] |  |
| CCN1CCC2(CC1)N=C(c1ccc(F)cc1)C(=S)N2C(=O)c1ccc(C)cc1 | -72.6% | 23.1 µM [falling, partial curve] | 23.1 µM [falling, partial curve] |
| COc1cc(NC(=O)NNC(=O)c2cc3occc3n2C)cc(OC)c1OC | -19.2% | 29.1 µM [rising, single point] |  |
| COc1ccc(CNC(N)=O)cc1OC | 31.8% |  | 0.206 µM [rising, full curve, poor fit] |
| Nc1ncnc(Nc2cccc(Cl)c2Cl)n1 | 29.3% | 23.1 µM [rising, partial curve] | 0.0517 µM [rising, full curve, poor fit] |
| COc1ccccc1C1=NOC(C(=O)N2CCN(C(=O)c3ccco3)CC2)C1 (stereo not drawn) | 11% | 11.6 µM [rising, partial curve] |  |
| Cc1ccc(S(=O)(=O)N2CCOCC2)cc1NC(=O)CSc1nnnn1C | -29.2% | 0.0058 µM [falling, full curve, poor fit] |  |
| CC(C)NC(=S)N/N=C1\CCCc2ccccc21 | 118% | 2.31 µM [rising, partial curve] | 23.1 µM [rising, partial curve, poor fit] |
| Cc1ccc(C(C)C)c(OCCCCN2CCNCC2)c1 | 25.8% | 29.1 µM [rising, single point] |  |
| CCCC(=O)Nc1ccc2oc(-c3cccnc3)nc2c1 | 55.5% | 4.61 µM [rising, single point] | 29.1 µM [rising, single point] |
| CCOC(=O)c1c(NC(=O)COC(=O)Cc2n[nH]c(=O)c3ccccc23)sc(C(=O)N(C)C)c1C |  | 5.8 µM [rising, single point] |  |
| NNC(=O)c1cc2c(N3CCC(Cc4ccccc4)CC3)ncnc2s1 | 9.26% |  |  |
| CCOC(=O)Cc1nnc(Nc2cc(C)ccc2C)c2ccccc12 | -36.4% | 4.61 µM [falling, partial curve] | 2.59 µM [falling, full curve] |
| O=C1C=C(c2cc(F)ccc2F)C[C@@H](c2ccc(F)cc2)C1 | -19% | 0.231 µM [rising, full curve] | 0.366 µM [falling, partial curve, poor fit] |
| O=C1C2C3C=CC(C2C(=O)N1CCCO)C1C2C(=O)N(CCCO)C(=O)C2C31 (stereo not drawn) |  | 8.2 µM [rising, partial curve, poor fit] | 0.731 µM [falling, single point] |
| C=CCOC(=O)Nc1c(C(=O)OC)[nH]c2ccccc12 | 38.2% |  | 9.2 µM [rising, partial curve, poor fit] |
| C=CCN=c1scc(-c2ccc(F)cc2)n1/N=C/c1ccccn1 | -27.6% | 20.6 µM [falling, single point] |  |
| CCN(CC)CC(=O)Nc1ccc(/C(C)=N/NC2=NCCN2)cc1 | 36.2% |  |  |
| Cc1ccc(Oc2nc(CN3CCOCC3)nc3sc4c(c23)CCC(C)C4)cc1C (stereo not drawn) | 24.3% | 3.66 µM [rising, single point] |  |
| CC(C)c1ccc(NC(=S)NNC(=O)c2cccnc2)cc1 | -52% | 29.1 µM [falling, partial curve, poor fit] | 32.6 µM [falling, single point] |

In the list so far, these have an NH in an aromatic ring:

| Compound | cell number change | AC50 [1] | AC50 [2] |
| --- | --- | --- | --- |
| CCOC(=O)c1c(NC(=O)COC(=O)Cc2n[nH]c(=O)c3ccccc23)sc(C(=O)N(C)C)c1C |  | 5.8 µM [rising, single point] |  |
| C=CCOC(=O)Nc1c(C(=O)OC)[nH]c2ccccc12 | 38.2% |  | 9.2 µM [rising, partial curve, poor fit] |

Going on with the list.

| Compound | cell number change | AC50 [1] | AC50 [2] |
| --- | --- | --- | --- |
| Cc1c(NC(=O)Nc2cc(Cl)ccc2Cl)c(=O)n(-c2ccccc2)n1C | 19.7% |  |  |
| COc1ccc(Cc2nnc3sc(SCC(=O)Nc4ccccc4)nn3c2=O)cc1OC | -30.2% |  | 0.731 µM [falling, full curve] |
| COc1ccccc1OCCSc1nc2ccc([N+](=O)[O-])cc2s1 | 39.4% | 18.4 µM [rising, single point] | 8.2 µM [rising, partial curve] |
| Cc1cccc(-c2nnc(SC(C)C(=O)N3CCOCC3)o2)c1 (stereo not drawn) | 17.8% | 2.06 µM [falling, partial curve] |  |
| O=C(N=Nc1c(O)[nH]c2ccc(Br)cc12)c1cc(-c2cccs2)nc2ccccc12 | -30.3% | 0.58 µM [falling, single point] | 23.1 µM [falling, single point] |
| Cc1ccc(C(=O)NNC(=S)NC(=O)c2ccc(Cl)cc2Cl)cc1 | -0.465% |  |  |
| Cc1c(CCOC(=O)c2cc([N+](=O)[O-])cc([N+](=O)[O-])c2)sc[n+]1CC(=O)c1ccc(Br)cc1 |  |  | 0.0651 µM [falling, full curve, poor fit] |
| Cc1cccc(C)c1Nc1nc2ccccc2o1 |  | 0.231 µM [rising, full curve] |  |
| O=C(O)C1CSCN1S(=O)(=O)c1cccc2nsnc12 (stereo not drawn) | -8.25% | 0.461 µM [falling, full curve, poor fit] |  |
| CCn1cnc2cc(NCc3ccc(Cl)cc3)ccc21 | 27.7% |  |  |
| NS(=O)(=O)c1ccc(CCNC(=O)CSCc2ccccc2)cc1 | 8.98% | 8.2 µM [rising, partial curve] |  |
| Cc1ccccc1C(=O)NCc1nnc(SCC(=O)N2c3ccccc3Sc3ccccc32)n1C | -16.1% | 6.51 µM [rising, single point] |  |
| O=C1CCCN2N=C(SCC(=O)Nc3ccc(Cl)cc3)SC2=N1 | 9.24% |  |  |
| CC(=O)NC(CC(=O)NCCc1ccccc1)c1ccccc1 (stereo not drawn) | 7.37% |  |  |
| O=C(CSc1nnnn1-c1ccccc1)NCC1(N2CCCCC2)CCCCC1 | -45.4% | 20.6 µM [falling, single point] | 0.517 µM [falling, full curve, poor fit] |
| c1ccc(-c2nc3nc4ccccc4nc3n2CC2CCCO2)cc1 (stereo not drawn) | 15.9% |  |  |
| Cn1c(=O)c2c(nc(SCCOc3ccc4ccc(=O)oc4c3)n2C)n(C)c1=O |  | 2.06 µM [rising, partial curve] |  |
| O=C(NCc1ccccc1)c1ccc(F)c(F)c1 | 30.7% |  |  |
| Cc1ccc(NC(=O)Nc2nc(-c3ccc(C)s3)cs2)cc1 | -38.7% |  | 7.31 µM [falling, partial curve] |

Two compounds from above with just AC50 [1] and AC50 [2].
Compound | AC50 [1] | AC50 [2]
O=C(N=Nc1c(O)[nH]c2ccc(Br)cc12)c1cc(-c2cccs2)nc2ccccc12 | 0.58 µM [falling, single point] | 23.1 µM [falling, single point]
O=C(CSc1nnnn1-c1ccccc1)NCC1(N2CCCCC2)CCCCC1 | 20.6 µM [falling, single point] | 0.517 µM [falling, full curve, poor fit]
